Test results reported in the odorant receptor screen of Mainland et al. (2015).
Where “and” joins values, the source holds several entries; their conditions need not be identical. Equal values may be shown once. Some of the results follow. Each value is one well over the wells without odorant, computed here; the data are noisy.

Chains of the proteins cited; added tags and fusions are not shown. Chains listed by the source or under a name are the forms on record and can include a tag or linker.
OR4F14 A297T, as listed by the source, stated change not applied: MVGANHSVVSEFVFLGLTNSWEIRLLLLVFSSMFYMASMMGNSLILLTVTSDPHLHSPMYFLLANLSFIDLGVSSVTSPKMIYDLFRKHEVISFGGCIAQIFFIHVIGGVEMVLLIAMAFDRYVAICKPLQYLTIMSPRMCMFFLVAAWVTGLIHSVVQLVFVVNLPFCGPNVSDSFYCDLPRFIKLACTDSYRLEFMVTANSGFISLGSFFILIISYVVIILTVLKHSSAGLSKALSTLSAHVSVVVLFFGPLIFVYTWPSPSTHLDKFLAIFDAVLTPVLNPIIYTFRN

Legend:
Assay in all cases: odorant receptor activation (CRE luciferase / Renilla) (fold of no-odor wells); higher = more activation
Settings in all cases: 100 µM
OR4B1 clone 1189 = test system: OR4B1 clone 1189
OR4C11 clone 1244 = test system: OR4C11 clone 1244
OR4C12 V283L clone 1155 = test system: OR4C12 V283L clone 1155
OR4C15 clone 1337 = test system: OR4C15 clone 1337
OR4C15 clone 1449 = test system: OR4C15 clone 1449
[1] = test system: OR4C16 V25L/T76A/L259P clone 1237
OR4C3 clone 1284 = test system: OR4C3 clone 1284
OR4C3 clone 1480 = test system: OR4C3 clone 1480
OR4C46 K288R clone 1483 = test system: OR4C46 K288R clone 1483
OR4C5 clone 1307 = test system: OR4C5 clone 1307
OR4D1 R54Q clone 1467 = test system: OR4D1 R54Q clone 1467
OR4D1 clone 1316 = test system: OR4D1 clone 1316
OR4D10 clone 1174 = test system: OR4D10 clone 1174
OR4D11 clone 1243 = test system: OR4D11 clone 1243
[2] = test system: OR4D2 C97S/L187F clone 1285
OR4D5 clone 1122 = test system: OR4D5 clone 1122
OR4D6 D96G clone 1225 = test system: OR4D6 D96G clone 1225
OR4D9 clone 1217 = test system: OR4D9 clone 1217
[3] = test system: OR4E2 V118M/Q234R clone 1274
OR4F14 A297T clone 1059 = test system: OR4F14 A297T clone 1059

Row | Structure (SMILES) | odorant receptor activation (OR4B1 clone 1189) | odorant receptor activation (OR4C11 clone 1244) | odorant receptor activation (OR4C12 V283L clone 1155) | odorant receptor activation (OR4C15 clone 1337) | odorant receptor activation (OR4C15 clone 1449) | odorant receptor activation [1] | odorant receptor activation (OR4C3 clone 1284) | odorant receptor activation (OR4C3 clone 1480) | odorant receptor activation (OR4C46 K288R clone 1483) | odorant receptor activation (OR4C5 clone 1307) | odorant receptor activation (OR4D1 R54Q clone 1467) | odorant receptor activation (OR4D1 clone 1316) | odorant receptor activation (OR4D10 clone 1174) | odorant receptor activation (OR4D11 clone 1243) | odorant receptor activation [2] | odorant receptor activation (OR4D5 clone 1122) | odorant receptor activation (OR4D6 D96G clone 1225) | odorant receptor activation (OR4D9 clone 1217) | odorant receptor activation [3] | odorant receptor activation (OR4F14 A297T clone 1059)
1 | CS [methanethiol] | 0.964 | 0.71 | 1.16 | 0.913 | 0.959 | 0.882 | 0.89 | 0.786 | 0.884 | 0.809 | 1.3 | 0.697 | 0.797 | 0.802 | 0.937 | 0.76 | 0.904 | 1.02 | 0.885 | 1.02
2 | CCOc1cc(C=O)ccc1O [ethyl vanillin] | 1.47 and 1.15 | 1.21 and 0.974 | 2 and 1.16 | 0.849 and 1.17 | 1.36 and 1.96 and 1.38 | 0.799 | 1.47 and 1.19 | 1.18 and 2.48 and 1.25 | 1.24 and 2.47 and 1.23 | 1.16 and 1.15 | 0.848 and 1.28 and 1.33 | 1.11 and 1.24 | 1.76 and 1.03 | 1.11 and 1.1 |  | 0.962 | 1.16 and 1.05 | 1.35 and 1.05 | 1.13 and 0.98 | 1.33 and 0.967
3 | CCC(C)=O [2-butanone] | 0.765 | 1.4 | 1.03 | 1.14 | 0.956 | 0.925 | 0.966 | 0.823 | 1.08 | 1.19 | 0.939 | 1.08 | 0.765 | 1.42 | 1.37 | 0.812 | 0.599 | 0.813 | 0.922 | 4.06
4 | CCCCOC(C)=O [butyl acetate] | 1.07 | 0.861 | 1.12 | 0.729 | 0.177 | 0.892 | 0.806 | 0.887 | 0.968 | 0.803 | 1.09 | 0.86 | 1.01 | 0.895 | 0.89 | 0.976 | 0.868 | 0.958 | 0.923 | 1.01
